Cell number after 72 h of treatment

From a melanoma drug combination screen (doi:10.1371/journal.pone.0140310); values rounded.

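Human melanoma cell lines in 1,536-well plates were treated with a pair of drugs for 72 h, then fixed, stained and imaged. Values are the number of DAPI-stained nuclei as a percentage of the DMSO control: 100 is no effect, lower means fewer cells. Every drug was used at one fixed concentration, the lower of two screened (a fifth of the higher). The file gives one value for each pair and line, without errors, so small differences may be noise.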 This is part of the screen, not chosen by result.

First drug in all entries: dorsomorphin, 400 nM, c1cc(-c2cnn3cc(-c4ccc(OCCN5CCCCC5)cc4)cnc23)ccn1

Second drug,C32
CC(C)CCN1c2nc(Nc3cc(F)c(O)c(F)c3)ncc2N(C)C(=O)C1C (stereo not given) at 200 nM,89.5
COc1ccc2c(c1)CCC1C2CCC2(C)C(NCCCCCCN3C(=O)C=CC3=O)CCC12 (stereo not given) at 400 nM,102
CS(=O)(=O)c1ccc(C(=O)Nc2ccc(Cl)c(-c3ccccn3)c2)c(Cl)c1 at 1000 nM,92.9
COC(=O)c1sccc1S(=O)(=O)Nc1ccc(Nc2ccccc2)cc1OC at 1000 nM,92.2
O=C(Nc1cccc(Cl)c1)Nc1ncc(CCNc2ncnc3ccsc23)s1 at 0.8 nM,84.5
CC1(C)NC(=O)N(c2ccc([N+](=O)[O-])c(C(F)(F)F)c2)C1=O at 1000 nM,91.6
Cn1cncc1[C@@](N)(c1ccc(Cl)cc1)c1ccc2c(c1)c(-c1cccc(Cl)c1)cc(=O)n2C at 10 nM,72.7
OCc1c[nH]c2ccccc12 at 800 nM,79.0
C=CCNC1=C2C[C@@H](C)C[C@H](OC)[C@H](O)[C@@H](C)/C=C(\C)[C@H](OC(N)=O)[C@@H](OC)/C=C\C=C(/C)C(=O)NC(=CC1=O)C2=O at 2 nM,78.1
O=c1[nH]nc(Sc2ncc([N+](=O)[O-])s2)n1-c1ccc2c(c1)OCCO2 at 200 nM,73.0
C[C@@H](Oc1cc(-c2cnn(C3CCNCC3)c2)cnc1N)c1c(Cl)ccc(F)c1Cl at 200 nM,93.6
COc1ccc(-c2ccc3c(N4CCOCC4)nc(N4C[C@@H](C)O[C@@H](C)C4)nc3n2)cc1CO at 20 nM,108
Cn1cc(C2=C(c3cn(C4CCN(Cc5ccccn5)CC4)c4ccccc34)C(=O)NC2=O)c2ccccc21 at 800 nM,97.9
N#CC[C@H](C1CCCC1)n1cc(-c2ncnc3[nH]ccc23)cn1 at 1000 nM,93.0
CS(=O)(=O)CCNCc1ccc(-c2ccc3ncnc(Nc4ccc(OCc5cccc(F)c5)c(Cl)c4)c3c2)o1 at 800 nM,88.7
Clc1ccc(Nc2nnc(Cc3ccncc3)c3ccccc23)cc1 at 2000 nM,88.1
COc1ccc(COc2ccc(Cc3cnc(N)nc3N)cc2OC)cc1 at 1000 nM,94.8
O=C(O)[C@@H]1[O][Sb](=[O])([O][Sb]2(=[O])[O][C@H]([C@H](O)CO)[C@H](O)[C@H](C(=O)O)[O]2)[O][C@H]([C@H](O)CO)[C@@H]1O (stereo not given in full) at 2000 nM,118
N#Cc1c(O)c2c(-c3ccc(-c4ccccc4O)cc3)csc2[nH]c1=O at 2000 nM,86.1
O=c1cc(-c2cccc3c2Sc2ccccc2S3)oc(N2CCOCC2)c1 at 1000 nM,67.9
C[C@]12O[C@H](C[C@]1(O)CO)n1c3ccccc3c3c4c(c5c6ccccc6n2c5c31)CNC4=O at 4 nM,82.3
NC1(c2ccc(-c3nc4ccn5c(=O)[nH]nc5c4cc3-c3ccccc3)cc2)CCC1 at 400 nM,64.5
CN(c1ncccc1CNc1nc(Nc2ccc3c(c2)CC(=O)N3)ncc1C(F)(F)F)S(C)(=O)=O at 80 nM,62.1
C=C(c1ccc(C(=O)O)cc1)c1cc2c(cc1C)C(C)(C)CCC2(C)C at 2000 nM,78.0
COc1cc2ncnc(Nc3ccc(Oc4ccccc4)cc3)c2cc1OC at 2000 nM,81.0

Some entries from above, unchanged:

Second drug,C32
C=CCNC1=C2C[C@@H](C)C[C@H](OC)[C@H](O)[C@@H](C)/C=C(\C)[C@H](OC(N)=O)[C@@H](OC)/C=C\C=C(/C)C(=O)NC(=CC1=O)C2=O at 2 nM,78.1
CS(=O)(=O)c1ccc(C(=O)Nc2ccc(Cl)c(-c3ccccn3)c2)c(Cl)c1 at 1000 nM,92.9
C[C@@H](Oc1cc(-c2cnn(C3CCNCC3)c2)cnc1N)c1c(Cl)ccc(F)c1Cl at 200 nM,93.6